Assay results from the supplement of paper PMC10077471.
Over roughly 1,900 compounds, “excess over highest single agent (ExcessHSA) synergy score, 6x6 matrix” has its median near -83; the lowest 2% begin near -370. The list shows a part of the results.

Each compound was assayed on NCI-H446 (assay: excess over highest single agent (ExcessHSA) synergy score, 6x6 matrix; higher = less synergy (more negative = stronger synergy)). Details: 72 h; CellTiter-Glo viability.

Compound	excess over highest single agent
N[C@@H](CC(=O)N1CCn2c(nnc2C(F)(F)F)C1)Cc1cc(F)c(F)cc1F + Cc1sc2c(c1C)C(c1ccc(Cl)cc1)=N[C@@H](CC(=O)OC(C)(C)C)c1nnc(C)n1-2 [NCGC00250412-19]	-133
CCOC(=O)c1cncn1[C@H](C)c1ccccc1 + Cc1sc2c(c1C)C(c1ccc(Cl)cc1)=N[C@@H](CC(=O)OC(C)(C)C)c1nnc(C)n1-2 [NCGC00250412-19]	-37.5
COc1nc(C)cnc1NS(=O)(=O)c1cccnc1-c1ccc(-c2nnco2)cc1 + Cc1sc2c(c1C)C(c1ccc(Cl)cc1)=N[C@@H](CC(=O)OC(C)(C)C)c1nnc(C)n1-2 [NCGC00250412-19]	-73.3
Cc1oc(=O)oc1CN1CCN(c2cc3c(cc2F)c(=O)c(C(=O)O)c2n3C(C)S2)CC1 (centres undefined) + Cc1sc2c(c1C)C(c1ccc(Cl)cc1)=N[C@@H](CC(=O)OC(C)(C)C)c1nnc(C)n1-2 [NCGC00250412-19]	-73.5
C/C(O)=C(\C#N)C(=O)Nc1ccc(C(F)(F)F)cc1 + Cc1sc2c(c1C)C(c1ccc(Cl)cc1)=N[C@@H](CC(=O)OC(C)(C)C)c1nnc(C)n1-2 [NCGC00250412-19]	-121
CC(=O)Nc1ccc([C@H](C)C(=O)Nc2ncc(C(C)C)s2)cc1 + Cc1sc2c(c1C)C(c1ccc(Cl)cc1)=N[C@@H](CC(=O)OC(C)(C)C)c1nnc(C)n1-2 [NCGC00250412-19]	-80.7
COc1cc2ncn(-c3cc(OCc4ccccc4S(C)(=O)=O)c(C#N)s3)c2cc1OC + Cc1sc2c(c1C)C(c1ccc(Cl)cc1)=N[C@@H](CC(=O)OC(C)(C)C)c1nnc(C)n1-2 [NCGC00250412-19]	137
Cn1cc(/C=C/C(=O)c2cccc(F)c2)cc1/C=C/C(=O)NO + Cc1sc2c(c1C)C(c1ccc(Cl)cc1)=N[C@@H](CC(=O)OC(C)(C)C)c1nnc(C)n1-2 [NCGC00250412-19]	-14
C[C@@H](Oc1cc(-c2cnn(C3CCNCC3)c2)cnc1N)c1c(Cl)ccc(F)c1Cl + Cc1sc2c(c1C)C(c1ccc(Cl)cc1)=N[C@@H](CC(=O)OC(C)(C)C)c1nnc(C)n1-2 [NCGC00250412-19]	-74.5
COCCCOc1ccnc(C[S+]([O-])c2nc3ccccc3[nH]2)c1C (centres undefined) + Cc1sc2c(c1C)C(c1ccc(Cl)cc1)=N[C@@H](CC(=O)OC(C)(C)C)c1nnc(C)n1-2 [NCGC00250412-19]	9.81
CC(=O)C1=C(O)C=C2Oc3c(C(C)=O)c(O)c(C)c(O)c3C2(C)C1=O (centres undefined) + Cc1sc2c(c1C)C(c1ccc(Cl)cc1)=N[C@@H](CC(=O)OC(C)(C)C)c1nnc(C)n1-2 [NCGC00250412-19]	-78.6
O=C(O)c1ccc(-c2cc3cccnc3c(-c3ccc4nonc4c3)n2)cc1 + Cc1sc2c(c1C)C(c1ccc(Cl)cc1)=N[C@@H](CC(=O)OC(C)(C)C)c1nnc(C)n1-2 [NCGC00250412-19]	29.4
Cc1c(CN2CCN(S(C)(=O)=O)CC2)sc2c(N3CCOCC3)nc(-c3cnc(N)nc3)nc12 + Cc1sc2c(c1C)C(c1ccc(Cl)cc1)=N[C@@H](CC(=O)OC(C)(C)C)c1nnc(C)n1-2 [NCGC00250412-19]	-334
COc1cc2ncnc(Nc3ccc(F)c(Cl)c3)c2cc1NC(=O)/C=C/CN1CCCCC1 + Cc1sc2c(c1C)C(c1ccc(Cl)cc1)=N[C@@H](CC(=O)OC(C)(C)C)c1nnc(C)n1-2 [NCGC00250412-19]	-240
Nc1nccc(-c2ccc3noc(-c4ccc(Cl)cc4)c3c2)n1 + Cc1sc2c(c1C)C(c1ccc(Cl)cc1)=N[C@@H](CC(=O)OC(C)(C)C)c1nnc(C)n1-2 [NCGC00250412-19]	114
CCCc1nc2c(C)cc(-c3nc4ccccc4n3C)cc2n1Cc1ccc(-c2ccccc2C(=O)O)cc1 + Cc1sc2c(c1C)C(c1ccc(Cl)cc1)=N[C@@H](CC(=O)OC(C)(C)C)c1nnc(C)n1-2 [NCGC00250412-19]	-202
OCCC#Cc1nc(-c2ccc(F)cc2)c(-c2ccncc2)n1CCCc1ccccc1 + Cc1sc2c(c1C)C(c1ccc(Cl)cc1)=N[C@@H](CC(=O)OC(C)(C)C)c1nnc(C)n1-2 [NCGC00250412-19]	-12.7
COCCCOc1cc(C[C@@H](C[C@H](N)[C@@H](O)C[C@H](C(=O)NCC(C)(C)C(N)=O)C(C)C)C(C)C)ccc1OC + Cc1sc2c(c1C)C(c1ccc(Cl)cc1)=N[C@@H](CC(=O)OC(C)(C)C)c1nnc(C)n1-2 [NCGC00250412-19]	-280
Cc1ccc(C(=O)N(CCCN)[C@@H](c2nc3cc(Cl)ccc3c(=O)n2Cc2ccccc2)C(C)C)cc1 + Cc1sc2c(c1C)C(c1ccc(Cl)cc1)=N[C@@H](CC(=O)OC(C)(C)C)c1nnc(C)n1-2 [NCGC00250412-19]	-135
[Cl][Pt+2][Cl].[NH2-].[NH2-] + Cc1sc2c(c1C)C(c1ccc(Cl)cc1)=N[C@@H](CC(=O)OC(C)(C)C)c1nnc(C)n1-2 [NCGC00250412-19]	5.09

Quoted from the listing:
In excess over highest single agent, Cc1oc(=O)oc1CN1CCN(c2cc3c(cc2F)c(=O)c(C(=O)O)c2n3C(C)S2)CC1 (centres undefined) + Cc1sc2c(c1C)C(c1ccc(Cl)cc1)=N[C@@H](CC(=O)OC(C)(C)C)c1nnc(C)n1-2 [NCGC00250412-19] is listed with -73.5
In excess over highest single agent, Cc1c(CN2CCN(S(C)(=O)=O)CC2)sc2c(N3CCOCC3)nc(-c3cnc(N)nc3)nc12 + Cc1sc2c(c1C)C(c1ccc(Cl)cc1)=N[C@@H](CC(=O)OC(C)(C)C)c1nnc(C)n1-2 [NCGC00250412-19] is listed with -334
In excess over highest single agent, OCCC#Cc1nc(-c2ccc(F)cc2)c(-c2ccncc2)n1CCCc1ccccc1 + Cc1sc2c(c1C)C(c1ccc(Cl)cc1)=N[C@@H](CC(=O)OC(C)(C)C)c1nnc(C)n1-2 [NCGC00250412-19] is listed with -12.7

Carrying on:

Compound	excess over highest single agent
CC1=CC(=O)c2ccccc2C1=O + Cc1sc2c(c1C)C(c1ccc(Cl)cc1)=N[C@@H](CC(=O)OC(C)(C)C)c1nnc(C)n1-2 [NCGC00250412-19]	121
C[C@@H](NCc1cc2ccccc2[nH]1)c1cccc2ccccc12 + Cc1sc2c(c1C)C(c1ccc(Cl)cc1)=N[C@@H](CC(=O)OC(C)(C)C)c1nnc(C)n1-2 [NCGC00250412-19]	-17.7
CC(C)Oc1cc(Nc2nc(N[C@@H](C)c3ccc(F)cn3)ncc2Cl)n[nH]1 + Cc1sc2c(c1C)C(c1ccc(Cl)cc1)=N[C@@H](CC(=O)OC(C)(C)C)c1nnc(C)n1-2 [NCGC00250412-19]	-396
Cc1ccc2nc(NCCN)c3ncc(C)n3c2c1 + Cc1sc2c(c1C)C(c1ccc(Cl)cc1)=N[C@@H](CC(=O)OC(C)(C)C)c1nnc(C)n1-2 [NCGC00250412-19]	-177
Cc1c(NC(=O)OC[C@@H]2COCCN2)cn2ncnc(Nc3ccc4c(cnn4Cc4cccc(F)c4)c3)c12 + Cc1sc2c(c1C)C(c1ccc(Cl)cc1)=N[C@@H](CC(=O)OC(C)(C)C)c1nnc(C)n1-2 [NCGC00250412-19]	-141
CN1C(=O)C[C@@H](C(=O)N[C@@H](Cc2c[nH]cn2)C(=O)N2CCC[C@H]2C(N)=O)NC1=O + Cc1sc2c(c1C)C(c1ccc(Cl)cc1)=N[C@@H](CC(=O)OC(C)(C)C)c1nnc(C)n1-2 [NCGC00250412-19]	29.5
O=C(O)c1nn(Cc2ccc(Cl)cc2Cl)c2ccccc12 + Cc1sc2c(c1C)C(c1ccc(Cl)cc1)=N[C@@H](CC(=O)OC(C)(C)C)c1nnc(C)n1-2 [NCGC00250412-19]	-191
CC(C[N+](C)(C)C)OC(N)=O (centres undefined) + Cc1sc2c(c1C)C(c1ccc(Cl)cc1)=N[C@@H](CC(=O)OC(C)(C)C)c1nnc(C)n1-2 [NCGC00250412-19]	34.8
CN(C)CCN(Cc1ccc(Cl)cc1)c1ccccn1 + Cc1sc2c(c1C)C(c1ccc(Cl)cc1)=N[C@@H](CC(=O)OC(C)(C)C)c1nnc(C)n1-2 [NCGC00250412-19]	-131
Cc1cn([C@H]2C[C@H](N=[N+]=[N-])[C@@H](CO)O2)c(=O)[nH]c1=O + Cc1sc2c(c1C)C(c1ccc(Cl)cc1)=N[C@@H](CC(=O)OC(C)(C)C)c1nnc(C)n1-2 [NCGC00250412-19]	-104
COc1ccc([C@@H]2Sc3ccccc3N(CCN(C)C)C(=O)[C@@H]2OC(C)=O)cc1 + Cc1sc2c(c1C)C(c1ccc(Cl)cc1)=N[C@@H](CC(=O)OC(C)(C)C)c1nnc(C)n1-2 [NCGC00250412-19]	-36.1
Cn1c(=O)c(-c2c(Cl)cccc2Cl)cc2cnc(Nc3cccc(C(=O)O)c3)nc21 + Cc1sc2c(c1C)C(c1ccc(Cl)cc1)=N[C@@H](CC(=O)OC(C)(C)C)c1nnc(C)n1-2 [NCGC00250412-19]	-131
Cc1ccc(-c2ncn(-c3ccc(Nc4nccc(-c5cccc(N6CCOCC6)c5)n4)cc3)n2)cn1 + Cc1sc2c(c1C)C(c1ccc(Cl)cc1)=N[C@@H](CC(=O)OC(C)(C)C)c1nnc(C)n1-2 [NCGC00250412-19]	-78.7
CCNC(=O)c1noc(-c2cc(C(C)C)c(O)cc2O)c1-c1ccc(CN2CCOCC2)cc1 + Cc1sc2c(c1C)C(c1ccc(Cl)cc1)=N[C@@H](CC(=O)OC(C)(C)C)c1nnc(C)n1-2 [NCGC00250412-19]	-382
COc1cccc(N(C)C(=S)Oc2ccc3c(c2)CCCC3)n1 + Cc1sc2c(c1C)C(c1ccc(Cl)cc1)=N[C@@H](CC(=O)OC(C)(C)C)c1nnc(C)n1-2 [NCGC00250412-19]	-36
CNCc1ccc(-c2[nH]c3cc(F)cc4c3c2CCNC4=O)cc1 + Cc1sc2c(c1C)C(c1ccc(Cl)cc1)=N[C@@H](CC(=O)OC(C)(C)C)c1nnc(C)n1-2 [NCGC00250412-19]	-53.1
CC(C)(O)CCc1ccc(OCc2cc(-c3cccc(OC(F)F)c3)c3ncccc3c2)cc1 + Cc1sc2c(c1C)C(c1ccc(Cl)cc1)=N[C@@H](CC(=O)OC(C)(C)C)c1nnc(C)n1-2 [NCGC00250412-19]	48.5
C[C@@H]1C[C@@H]([C@H](O)CC2CC(=O)NC(=O)C2)C(=O)[C@@H](C)C1 + Cc1sc2c(c1C)C(c1ccc(Cl)cc1)=N[C@@H](CC(=O)OC(C)(C)C)c1nnc(C)n1-2 [NCGC00250412-19]	-14.5
Cc1cnc(-c2cnc(NCCNc3ccc(C#N)cn3)nc2-c2ccc(Cl)cc2Cl)[nH]1 + Cc1sc2c(c1C)C(c1ccc(Cl)cc1)=N[C@@H](CC(=O)OC(C)(C)C)c1nnc(C)n1-2 [NCGC00250412-19]	58.7
